Reference: PubChem BioAssay AID1508588 (Peter MacCallum Cancer Centre, 2020)
The deposit covers about 18,000 reagents; below is an unselected part. In the full data, 790 (4.4%) got an active call. 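Calls rest on a combination of fold-change classes in drug and vehicle arms, not all shown here.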 Unmarked entries are inactive.

- Screen: 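Knock-downs boosting vemurafenib effects on melanoma cell growth or lactate release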 (primary screen)
- System: human WM266.4 melanoma cells (BRAF V600 mutant)
- Knock-down reagent: siRNA pool against human genes, 40 nM
- Duration: 96 h from transfection to read-out
- Challenge: vemurafenib 300 nM (about IC25), added 48 h after transfection, for 48 h; comparison arm got DMSO vehicle only
- Read-out: 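Cell gain (DAPI nuclei at end minus before drug, mean of two replicates) and medium lactate by absorbance per cell, both as ratio to non-targeting siRNA, also grouped into fold-change classes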
- Reading the numbers: cell gain with vemurafenib: higher = more cell gain than with non-targeting siRNA; lactate per cell with vemurafenib: higher = more lactate made per cell
- Active means: 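Enhancement is called by pairing each knock-down's vehicle-arm and drug-arm fold-change classes for viability or glycolysis; which class combinations qualify is not given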
- Calls: active = enhances vemurafenib effect; inactive = no enhancement seen

{"Target gene": "PLEKHN1 (pleckstrin homology domain containing N1)", "cell gain with vemurafenib": 0.7, "lactate per cell with vemurafenib": 0.54}
{"Target gene": "UFSP1 (UFM1 specific peptidase 1)", "cell gain with vemurafenib": 0.42, "lactate per cell with vemurafenib": 1.42}
{"Target gene": "SLC13A5", "cell gain with vemurafenib": 0.56, "lactate per cell with vemurafenib": 0.4}
{"Target gene": "SLC25A29", "cell gain with vemurafenib": 0.96, "lactate per cell with vemurafenib": 0.74}
{"Target gene": "CNOT6 (CCR4-NOT transcription complex subunit 6)", "cell gain with vemurafenib": 0.44, "lactate per cell with vemurafenib": 0.81}
{"Target gene": "ADISSP (adipose secreted signaling protein)", "cell gain with vemurafenib": 0.47, "lactate per cell with vemurafenib": 1.75}
{"Target gene": "RTCB (RNA 2',3'-cyclic phosphate and 5'-OH ligase)", "cell gain with vemurafenib": 0.8, "lactate per cell with vemurafenib": 0.88}
{"Target gene": "C1orf162 (chromosome 1 open reading frame 162)", "cell gain with vemurafenib": 0.57, "lactate per cell with vemurafenib": 1.02}
{"Target gene": "ART1 (ADP-ribosyltransferase 1)", "cell gain with vemurafenib": 0.66, "lactate per cell with vemurafenib": 0.8}
{"Target gene": "PIP4P2 (phosphatidylinositol-4,5-bisphosphate 4-phosphatase 2)", "cell gain with vemurafenib": 0.75, "lactate per cell with vemurafenib": 0.98}
{"Target gene": "CFTR (CF transmembrane conductance regulator)", "cell gain with vemurafenib": 1.07, "lactate per cell with vemurafenib": 0.7}
{"Target gene": "OR10AD1 (olfactory receptor family 10 subfamily AD member 1)", "cell gain with vemurafenib": 0.33, "lactate per cell with vemurafenib": 1.02}
{"Target gene": "SPRYD3 (SPRY domain containing 3)", "cell gain with vemurafenib": 0.76, "lactate per cell with vemurafenib": 1.81}
{"Target gene": "GRTP1 (growth hormone regulated TBC protein 1)", "cell gain with vemurafenib": 0.26, "lactate per cell with vemurafenib": 1.92}
{"Target gene": "C3orf52 (chromosome 3 open reading frame 52)", "cell gain with vemurafenib": 0.43, "lactate per cell with vemurafenib": 0.39}
{"Target gene": "RMND1 (required for meiotic nuclear division 1 homolog)", "cell gain with vemurafenib": 0.55, "lactate per cell with vemurafenib": 0.58}
